Measurements taken from PMC10352605.
Results are given in words; binding and its absence hold for the method and conditions named. Binding seen in cells or lysates may run through a third protein. Some results given as binding are weak or reduced against the parent protein; the word gives no strength. For some of these results: Tags and fused reporters may be left off the sequences shown.

Sequences of proteins named here, by UniProt entry; tags and fusion partners are left off. A change or cut given only in a name is not applied to a line headed by its entry. Residues count along the entry.
UniProt P04198: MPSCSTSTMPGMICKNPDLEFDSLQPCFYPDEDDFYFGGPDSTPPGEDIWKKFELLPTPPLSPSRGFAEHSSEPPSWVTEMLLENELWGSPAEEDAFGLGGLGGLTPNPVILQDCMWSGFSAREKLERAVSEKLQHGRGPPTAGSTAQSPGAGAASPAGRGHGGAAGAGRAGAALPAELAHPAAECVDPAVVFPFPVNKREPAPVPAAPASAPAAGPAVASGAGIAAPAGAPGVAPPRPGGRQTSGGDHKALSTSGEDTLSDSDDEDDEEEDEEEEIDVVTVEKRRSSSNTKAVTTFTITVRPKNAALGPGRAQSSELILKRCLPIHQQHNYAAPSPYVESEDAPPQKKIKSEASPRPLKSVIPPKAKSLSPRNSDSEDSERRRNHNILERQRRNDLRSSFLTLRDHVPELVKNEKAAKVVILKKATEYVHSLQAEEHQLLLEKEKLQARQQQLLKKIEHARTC
AA 48 to 89 of HA-MYCN: residues 48-89 of P04198
UniProt Q969H0: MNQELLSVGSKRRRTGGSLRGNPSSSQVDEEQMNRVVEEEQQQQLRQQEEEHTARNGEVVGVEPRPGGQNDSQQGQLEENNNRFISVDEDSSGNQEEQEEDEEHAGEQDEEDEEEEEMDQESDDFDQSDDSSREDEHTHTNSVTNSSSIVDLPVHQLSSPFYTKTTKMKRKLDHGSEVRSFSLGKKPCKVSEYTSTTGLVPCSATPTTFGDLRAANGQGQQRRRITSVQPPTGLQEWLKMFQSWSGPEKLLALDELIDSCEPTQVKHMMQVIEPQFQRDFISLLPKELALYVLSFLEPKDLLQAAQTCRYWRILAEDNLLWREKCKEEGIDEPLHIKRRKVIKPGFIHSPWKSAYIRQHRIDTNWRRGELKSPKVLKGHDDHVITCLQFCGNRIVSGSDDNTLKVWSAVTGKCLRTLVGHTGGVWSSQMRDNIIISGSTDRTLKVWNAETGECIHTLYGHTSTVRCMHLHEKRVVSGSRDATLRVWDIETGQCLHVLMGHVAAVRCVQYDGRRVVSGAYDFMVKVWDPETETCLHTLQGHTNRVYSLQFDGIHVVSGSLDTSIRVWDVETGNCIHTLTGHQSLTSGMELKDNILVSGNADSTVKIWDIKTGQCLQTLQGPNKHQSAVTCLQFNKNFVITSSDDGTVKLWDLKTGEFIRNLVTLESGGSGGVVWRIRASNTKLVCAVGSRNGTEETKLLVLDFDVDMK

Legend:
[1] = target: MYCN (co-IP of Figure 8B and Figure S8) (UniProt P04198); assay: co-IP; FBXW7-MYCN co-IP with graded exogenous expression of CCNB1IP1 (Figure 8B,C) or knockdown of CCNB1IP1 (Figure S8); cells not named
[2] = target: AA 48 to 89 of HA-MYCN (UniProt P04198); assay: co-IP; HEK293T cells co-transfected with HA-MYCN WT, MYCN^△48-89 or MYCN^48-89, Myc-FBXW7, alone or together with Flag-CCNB1IP1 WT or M4 (competitive binding); immunoblot
[3] = target: HA-tagged MYCN WT (UniProt P04198); assay: as above
[4] = target: MYCN (endogenous, MYCN-amplified neuroblastoma cells) (human (endogenous in BE(2)M17 and IMR-32)) (UniProt P04198); assay: co-IP; endogenous proteins; anti-MYCN antibody on magnetic beads, IgG as negative control; lysates of BE(2)M17 and IMR-32 cells; immunoblot
[5] = target: HA-tagged MYCN WT (UniProt P04198); assay: co-IP; HEK293T cells transfected with HA-MYCN and Flag-CCNB1IP1 WT or truncated mutants M1-M4, each separately; immunoblot

FBXW7 (co-IP of Figure 8B and Figure S8) (from UniProt Q969H0 1-707)
binding [1]: binds

Myc-tagged FBXW7 WT (from UniProt Q969H0 1-707)
binding [2]: binds
binding [3]: binds

B1: cyclin B1 interacting protein 1 (endogenous, MYCN-amplified neuroblastoma cells) (protein, UniProt Q9NPC3 1-277)
chain: MSLCEDMLLCNYRKCRIKLSGYAWVTACSHIFCDQHGSGEFSRSPAICPACNSTLSGKLDIVRTELSPSEEYKAMVLAGLRPEIVLDISSRALAFWTYQVHQERLYQEYNFSKAEGHLKQMEKIYTQQIQSKDVELTSMKGEVTSMKKVLEEYKKKFSDISEKLMERNRQYQKLQGLYDSLRLRNITIANHEGTLEPSMIAQSGVLGFPLGNNSKFPLDNTPVRNRGDGDGDFQFRPFFAGSPTAPEPSNSFFSFVSPSRELEQQQVSSRAFKVKRI
binding [4]: binds

B2: Flag-tagged CCNB1IP1 WT (protein, UniProt Q9NPC3 1-277)
chain: B1 chain
binding [5]: binds
binding [2]: binds

B3: exogenously expressed CCNB1IP1 (co-IP of Figure 8B) (protein, UniProt Q9NPC3 1-277)
chain: B1 chain
binding [1]: binds
